This passage reports binding results from article PMC4301810.

Chains of the proteins cited; added tags and fusions are not shown. Residues count along the entry.
UniProt C0LGT6, residues 25-1031: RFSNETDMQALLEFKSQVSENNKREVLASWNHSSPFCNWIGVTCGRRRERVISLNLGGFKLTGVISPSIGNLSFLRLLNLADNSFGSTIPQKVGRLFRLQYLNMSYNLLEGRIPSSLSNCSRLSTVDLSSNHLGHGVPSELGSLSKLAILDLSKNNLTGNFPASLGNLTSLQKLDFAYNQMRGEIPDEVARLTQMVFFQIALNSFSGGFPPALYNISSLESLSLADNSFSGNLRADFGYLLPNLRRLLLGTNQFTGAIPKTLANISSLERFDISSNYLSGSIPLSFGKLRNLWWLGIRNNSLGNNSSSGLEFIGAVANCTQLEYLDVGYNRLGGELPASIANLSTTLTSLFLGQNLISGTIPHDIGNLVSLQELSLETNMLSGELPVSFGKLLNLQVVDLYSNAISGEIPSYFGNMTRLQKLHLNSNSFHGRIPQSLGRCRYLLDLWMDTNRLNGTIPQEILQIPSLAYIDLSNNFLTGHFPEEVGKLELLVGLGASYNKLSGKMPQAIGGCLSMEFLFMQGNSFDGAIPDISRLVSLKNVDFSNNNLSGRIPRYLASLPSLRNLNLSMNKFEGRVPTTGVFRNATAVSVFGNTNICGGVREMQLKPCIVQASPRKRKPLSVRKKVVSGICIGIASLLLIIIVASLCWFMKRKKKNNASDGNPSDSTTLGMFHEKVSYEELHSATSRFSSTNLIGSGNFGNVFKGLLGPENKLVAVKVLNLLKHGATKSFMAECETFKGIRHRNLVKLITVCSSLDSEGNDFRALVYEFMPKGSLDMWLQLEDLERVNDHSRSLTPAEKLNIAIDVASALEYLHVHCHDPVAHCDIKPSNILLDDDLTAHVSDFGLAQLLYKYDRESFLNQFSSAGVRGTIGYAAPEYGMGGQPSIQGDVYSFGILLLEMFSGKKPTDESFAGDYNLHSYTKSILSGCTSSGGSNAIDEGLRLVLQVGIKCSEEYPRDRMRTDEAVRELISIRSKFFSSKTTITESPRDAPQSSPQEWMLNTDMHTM

No constants are given. Whether binding was seen depends on the method and setting. In cells and extracts the contact can be indirect. Some entries that bind do so weakly or less than the wild type. Tags and fused reporters may be left off the sequences shown.

For this assay, the target named is EFR:GFP (transiently expressed in N. benthamiana) (Arabidopsis thaliana) (UniProt C0LGT6). Briefly: co-IP; transient co-expression in N. benthamiana; leaves treated with 100 nM elf18 or mock (water) for 10 min; GFP-tagged receptor precipitated with GFP-Trap agarose beads (3 hr, 4°C; 150 mM Tris-HCl pH 7.5, 150 mM NaCl, 10% glycerol, 1% IGEPAL CA630, 10 mM DTT); blots with anti-GFP and anti-HA.

B1: HA-tagged PLL4 (enzyme, UniProt Q9ZV25 1-654)
chain: MGNGIGKLSKCLTGGAGRNKKPELSILEPDPLDEGLGHSFCYVRPDPTRVSSSKVHSEEETTTFRTISGASVSANTATPLSTSLYDPYGHIDRAAAFESTTSFSSIPLQPIPRSSGPIVPGSGPLERGFLSGPIERGFMSGPLDGSSGPIDGKTGSDQFQRSFSHGLANLRVGSRKGSLVRVLRRAISKTITRGQNSIVAPIKPVKEPDWVFGSDKTRIHQIENNLTVNSLNFSSEGSLLDDDVSLESQNLQWAQGKAGEDRVHVVVSEEHGWLFVGIYDGFNGPDAPDYLLSHLYPAVHRELKGLLWDDPKTDAKSSDEADVENRDSSSEKKSKNWEESQRRWRCEWDRDLDRLLKDRSNGLDLDPDPNSSDVLKALSQALRKTEEAYLENADMMLDENPELALMGSCVLVMLMKGEDVYLMNVGDSRAVLGQKAESDYWIGKIKQDLERINEETMNDFDGCGDGEGASLVPTLSAFQLTVDHSTNVEEEVNRIRKEHPDDASAVSNERVKGSLKVTRAFGAGFLKQPKWNNALLEMFQIDYKGTSPYINCLPSLYHHRLGSKDQFLILSSDGLYQYFTNEEAVSEVELFITLQPEGDPAQHLVQELLFRAAKKAGMDFHELLEIPQGERRRYHDDVSIVVISLEGRMWKSCV
On to B1, for which the binding entry is on record as “binds”.

B2: HA-tagged PLL5 (enzyme, UniProt Q9LQN6 1-662)
chain: MGNGVTKLSICFTGGGGERLRPKDISVLLPDPLDEGLGHSFCYVRPDPTLISSSKVHSEEDTTTTTFRTISGASVSANTATPLSTSLYDPYGHIDRAAAFESTTSFSSIPLQPIPKSSGPIVLGSGPIERGFLSGPIERGFMSGPLDRVGLFSGPLDKPNSDHHHQFQRSFSHGLALRVGSRKRSLVRILRRAISKTMSRGQNSIVAPIKSVKDSDNWGIRSEKSRNLHNENLTVNSLNFSSEVSLDDDVSLENQNLQWAQGKAGEDRVHVVVSEEHGWLFVGIYDGFNGPDAPDYLLSHLYPVVHRELKGLLWDDSNVESKSQDLERSNGDESCSNQEKDETCERWWRCEWDRESQDLDRRLKEQISRRSGSDRLTNHSEVLEALSQALRKTEEAYLDTADKMLDENPELALMGSCVLVMLMKGEDIYVMNVGDSRAVLGQKSEPDYWLAKIRQDLERINEETMMNDLEGCEGDQSSLVPNLSAFQLTVDHSTNIEEEVERIRNEHPDDVTAVTNERVKGSLKVTRAFGAGFLKQPKWNNALLEMFQIDYVGKSPYINCLPSLYHHRLGSKDRFLILSSDGLYQYFTNEEAVSEVELFITLQPEGDPAQHLVQELLFRAAKKAGMDFHELLEIPQGERRRYHDDVSIVVISLEGRMWKSCV
As for B2, the binding result is “binds”.
